# Source: the supplement of paper PMC10338343
# ± gives the standard deviation. The list shows a part of the results, in another mix than the full data. The uncertainty is large for many entries.
# Tests used:
# [1] = system: MILI (PIWIL2) piRISC loaded with piRNA #1 (26 nt); experiment: pre-steady-state target cleavage rate (min^-1); MIWI and MILI are mouse PIWI proteins and EfPiwi is from a freshwater sponge; tags in brackets are library labels; higher = faster piRNA-guided slicing of the target; conditions: guide: piRNA #1 5'p-UGAGGUAGUAGGUUGUAUAGUAUCCA; auxiliary factor: 500 nM mouse GTSF1
# Procedure, shortened: (§1)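 Active affinity-purified piRISC (1 nM) loaded with one synthetic guide was mixed with a transcribed, DNA-blocked target RNA library (0.1 nM), with or without 500 nM GTSF1 partner protein, in HEPES–potassium acetate buffer at 33 °C for 0–8 or 0–960 min. Uncleaved targets were sequenced, normalised to depth and to weakly complementary targets, and pooled across three trials, with k3 capped at 0.0001 min^-1. The pre-steady-state cleavage rate was determined with a burst-and-steady-state fit.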
# [2] = system: MIWI (PIWIL1) piRISC loaded with piRNA #1 (30 nt); experiment: as above; conditions: guide: piRNA #1 5'p-UGAGGUAGUAGGUUGUAUAGUAUCCAGAGG; auxiliary factor: 500 nM mouse GTSF1
# Procedure, shortened: as §1
sequence,measurement,setting,value
GGAGACCUAUCUAAUGAACCUACUACCUCA,pre-steady-state target cleavage rate,[1],0.00248 ± 0.0028
same,pre-steady-state target cleavage rate,[2],0.000248 ± 0.0082
GGAGACCUAUGAAUACAACCUACAACCACA,pre-steady-state target cleavage rate,[1],0.00251 ± 0.0041
same,pre-steady-state target cleavage rate,[2],0.000261 ± 0.011
GGAGACCUAUGAUAUCAACCUACUACCUUCA,pre-steady-state target cleavage rate,[1],0.00188 ± 0.0033
same,pre-steady-state target cleavage rate,[2],0.000229 ± 0.0093
GGAGACCUAUGAUAUCAACCUACUACCUCU [g2:g15:cont:t1U],pre-steady-state target cleavage rate,[1],0.00186 ± 0.0028
same,pre-steady-state target cleavage rate,[2],0.000315 ± 0.0079
GGAGACCUAUGAUAUGUUCCCACUACCUCA,pre-steady-state target cleavage rate,[1],0.000178 ± 0.019
same,pre-steady-state target cleavage rate,[2],0.000284 ± 0.0076
GGAGACCUAUGAUAACACCUACUACCUCA,pre-steady-state target cleavage rate,[1],0.000842 ± 0.0081
same,pre-steady-state target cleavage rate,[2],0.000208 ± 0.01
GGAGACCUAUCUAUACAACCCUACUACCUCA,pre-steady-state target cleavage rate,[1],0.0014 ± 0.0054
same,pre-steady-state target cleavage rate,[2],0.000245 ± 0.0088
GGAGACCUAUGUAUACAACCUUCUAGCUCA,pre-steady-state target cleavage rate,[1],0.00145 ± 0.0058
same,pre-steady-state target cleavage rate,[2],0.0027 ± 0.0034
GGAGACCUAUGAUAUGUUGGUAGUACCACA,pre-steady-state target cleavage rate,[1],0.000412 ± 0.017
same,pre-steady-state target cleavage rate,[2],0.000661 ± 0.012
GGAGACCUAUGAUUACAACGCUACUACCUCA,pre-steady-state target cleavage rate,[1],0.000309 ± 0.011
same,pre-steady-state target cleavage rate,[2],0.00025 ± 0.011
GGAGACCUAUGAUUACAACCAACUAGCUCA,pre-steady-state target cleavage rate,[1],0.00232 ± 0.003
same,pre-steady-state target cleavage rate,[2],0.000259 ± 0.0068
GGAGUGGAUACUAUACAACCUACUAGCUGA,pre-steady-state target cleavage rate,[1],0.00113 ± 0.0027
same,pre-steady-state target cleavage rate,[2],0.000433 ± 0.0067
GGAGAGGAUACUAUACAACCUACUAGCUGA,pre-steady-state target cleavage rate,[1],0.00126 ± 0.005
same,pre-steady-state target cleavage rate,[2],0.00182 ± 0.0039
GGAGACCUAUGAUUACAACCUACUUACCUCA,pre-steady-state target cleavage rate,[1],0.0057 ± 0.0019
same,pre-steady-state target cleavage rate,[2],0.00149 ± 0.0039
GGAGACCUAUGAUUACAACCUACUACGAGA,pre-steady-state target cleavage rate,[1],0.0012 ± 0.0049
same,pre-steady-state target cleavage rate,[2],0.000564 ± 0.012
GGAGACCUAUGAAUACAACCUAGAUCCUCA,pre-steady-state target cleavage rate,[1],0.0017 ± 0.0044
same,pre-steady-state target cleavage rate,[2],0.000194 ± 0.012
GGAGACCUAUGAUUACAACUACUACCUCA,pre-steady-state target cleavage rate,[1],0.000894 ± 0.0058
same,pre-steady-state target cleavage rate,[2],0.000545 ± 0.0076
GGAGACCUAUGAAUACAACCUACUACUCA,pre-steady-state target cleavage rate,[1],0.00146 ± 0.0041
same,pre-steady-state target cleavage rate,[2],0.000293 ± 0.0084
GGAGACCUAUGAUUAAACCUACUACCUCA,pre-steady-state target cleavage rate,[1],0.00118 ± 0.0053
same,pre-steady-state target cleavage rate,[2],0.000137 ± 0.024
GGAGACCUAUGAAUACUACCUACUACCUGA,pre-steady-state target cleavage rate,[1],0.00114 ± 0.0053
same,pre-steady-state target cleavage rate,[2],0.000153 ± 0.012

# 2 records picked at random from those above:
sequence,measurement,setting,value
GGAGACCUAUGAUAUCAACCUACUACCUCU [g2:g15:cont:t1U],pre-steady-state target cleavage rate,[2],0.000315 ± 0.0079
GGAGACCUAUGUAUACAACCUUCUAGCUCA,pre-steady-state target cleavage rate,[2],0.0027 ± 0.0034
